Some results were stated once for a whole list of compounds, not compound by compound.
Test system: clinical strains resistant to third-generation cephalosporins
Assay: MIC distribution of third-generation cephalosporins alone or with compounds over clinical strains
Format: cell-based
Settings: for MIC values for ceftazidime and cefotaxime combined with the compound: for many clinical isolates; for MIC values of the antibiotics used by themselves: often
Description: The anti-resistance activity of inhibitors was investigated by the determination of the minimum inhibitory concentrations (MICs) of the β-lactam/inhibitor combination necessary to inhibit the growth of clinically-isolated bacteria resistant to third-generation cephalosporins via expression of class A or class C β-lactamases (Table 6).
Susceptibility testing was performed and interpreted following the guidelines of CLSI. (Clinical and Laboratory Standards Institute, Performance standards for antimicrobial susceptibility testing, 20th Informational Supplement, M100-S20 2010) The compounds were dissolved in 50% DMSO, and dilutions were performed using Muller-Hinton medium. An adequate final concentration was obtained to determine the minimum inhibitory concentrations (MICs). The concentration of DMSO was maintained below 5%. The inhibitors were tested for synergy with the third-generation β-lactams ceftazidime and cefotaxime against several clinical bacteria. The ratio of β-lactams to inhibitors was 1:4. Each value reported reflects the average of three independent experiments. […] The Friedman's test and the Wilcoxon signed rank test were used to compare MIC values. Statistical significance was established at p<0.05.

## O=S(=O)(NCB(O)O)c1ccc(-c2nn[nH]n2)nc1 [CR161, [6-(3-tetrazol-5-yl)pyridin-3-sulfonylamino]methaneboronic acid hydrocloride]
  MIC values for ceftazidime and cefotaxime combined with the compound: ≤ 0.5 µg/mL

## O=S(=O)(NCB(O)O)c1ccc(-c2nn[nH]n2)cc1Cl [CR190, [2-chloro-4-(3-tetrazol-5-yl)benzensulfonylamino]methaneboronic acid]
  MIC values for ceftazidime and cefotaxime combined with the compound: ≤ 0.5 µg/mL

## CO/N=C(\C(=O)N[C@@H]1C(=O)N2C(C(=O)O)=C(COC(C)=O)CS[C@H]12)c1csc(N)n1 [Cefotaxime]
  MIC values of the antibiotics used by themselves: greater than 64 μg/mL

## CC(C)(O/N=C(\C(=O)N[C@@H]1C(=O)N2C(C(=O)[O-])=C(C[n+]3ccccc3)CS[C@H]12)c1csc(N)n1)C(=O)O [Ceftazidime]
  MIC values of the antibiotics used by themselves: greater than 64 μg/mL

— patent publication US9371337B2, “β-lactamase inhibitors” (The Regents of the University of California, priority 2011, dated 2016)
